Record: PubChem BioAssay AID504764 (Drosophila RNAi Screening Center, 2011)
Test: 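Knock-downs that raise or lower a Notch target reporter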 (primary screen). System: Drosophila Kc167 cells. Reagents: long dsRNA against Drosophila genes. Time to read-out: about 5 days (4 days dsRNA, then 24 h after transfection). Treatment: transfection of constitutively active membrane-tethered Notch lacking the extracellular domain, read 24 h later. Detection: 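Firefly luciferase from an E(spl)m3 reporter with active Notch, plus control-promoter and uninduced reporter wells for normalisation; unnormalised counts, duplicate wells a and b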. Reading the numbers: induced reporter light, run 1, well a and induced reporter light, run 1, well b: higher = more light from the Notch target reporter with active Notch; control promoter light, run 1, well a and control promoter light, run 1, well b: higher = more light from the viral control promoter (cell number, transfection, viability); uninduced reporter light, run 1, well a: higher = more light from the Notch target reporter without active Notch. Active means: 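Wells with low control signal or poorly matching duplicates excluded; duplicates averaged; per source plate, z beyond ±2 for induced/control log2 ratio or beyond ±1.8 for induced/uninduced marks a hit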. Meaning of the calls: active = modifier hit (raised or lowered Notch signal); inactive = not a hit.
The deposit covers about 22,000 reagents; shown is a random part of those that have a named target and a result. In the full data, 403 (1.9%) are marked active. 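Unnormalised raw counts per well; ratio z-scores behind the hit calls and whether each hit raises or lowers signal are not deposited.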 Names joined by + are all predicted targets of the reagent. The record does not give: the amount of reagent.

The first 2 entries, ahead of the listing:
{"gene knocked down": "CG11000", "PubChem SID": "SID104191950", "induced reporter light, run 1, well a": 87335, "induced reporter light, run 1, well b": 1.12e5, "control promoter light, run 1, well a": 87430, "control promoter light, run 1, well b": 60355, "uninduced reporter light, run 1, well a": 7460, "outcome": "inactive"}
{"gene knocked down": "Polr2C (RNA polymerase II subunit C)", "PubChem SID": "SID104183207", "induced reporter light, run 1, well a": 73455, "induced reporter light, run 1, well b": 77200, "control promoter light, run 1, well a": 58900, "control promoter light, run 1, well b": 57830, "uninduced reporter light, run 1, well a": 6232, "outcome": "inactive"}

The list itself, repeating the preview:
{"gene knocked down": "CG11000", "PubChem SID": "SID104191950", "induced reporter light, run 1, well a": 87335, "induced reporter light, run 1, well b": 1.12e5, "control promoter light, run 1, well a": 87430, "control promoter light, run 1, well b": 60355, "uninduced reporter light, run 1, well a": 7460, "outcome": "inactive"}
{"gene knocked down": "Polr2C (RNA polymerase II subunit C)", "PubChem SID": "SID104183207", "induced reporter light, run 1, well a": 73455, "induced reporter light, run 1, well b": 77200, "control promoter light, run 1, well a": 58900, "control promoter light, run 1, well b": 57830, "uninduced reporter light, run 1, well a": 6232, "outcome": "inactive"}
{"gene knocked down": "Mocs2A + Mocs2B", "PubChem SID": "SID104193489", "induced reporter light, run 1, well a": 2.61e5, "induced reporter light, run 1, well b": 2.22e5, "control promoter light, run 1, well a": 3.33e5, "control promoter light, run 1, well b": 2.82e5, "uninduced reporter light, run 1, well a": 14215, "outcome": "inactive"}
{"gene knocked down": "Mocs2A + Mocs2B", "PubChem SID": "SID104194011", "induced reporter light, run 1, well a": 1.53e5, "induced reporter light, run 1, well b": 1.69e5, "control promoter light, run 1, well a": 2.60e5, "control promoter light, run 1, well b": 1.68e5, "uninduced reporter light, run 1, well a": 14080, "outcome": "inactive"}
{"gene knocked down": "CG32985", "PubChem SID": "SID104182426", "induced reporter light, run 1, well a": 88360, "induced reporter light, run 1, well b": 1.19e5, "control promoter light, run 1, well a": 64295, "control promoter light, run 1, well b": 92150, "uninduced reporter light, run 1, well a": 15960, "outcome": "inactive"}
{"gene knocked down": "CG14207", "PubChem SID": "SID104199354", "induced reporter light, run 1, well a": 1.48e5, "induced reporter light, run 1, well b": 1.54e5, "control promoter light, run 1, well a": 1.33e5, "control promoter light, run 1, well b": 85760, "uninduced reporter light, run 1, well a": 10765, "outcome": "inactive"}
{"gene knocked down": "CG14207", "PubChem SID": "SID104199355", "induced reporter light, run 1, well a": 66810, "induced reporter light, run 1, well b": 84840, "control promoter light, run 1, well a": 75605, "control promoter light, run 1, well b": 91065, "uninduced reporter light, run 1, well a": 9350, "outcome": "inactive"}
{"gene knocked down": "CG10280", "PubChem SID": "SID104191925", "induced reporter light, run 1, well a": 1.05e5, "induced reporter light, run 1, well b": 1.27e5, "control promoter light, run 1, well a": 92590, "control promoter light, run 1, well b": 86870, "uninduced reporter light, run 1, well a": 10860, "outcome": "inactive"}
{"gene knocked down": "CG17329", "PubChem SID": "SID104181718", "induced reporter light, run 1, well a": 1.14e5, "induced reporter light, run 1, well b": 1.01e5, "control promoter light, run 1, well a": 1.76e5, "control promoter light, run 1, well b": 1.86e5, "uninduced reporter light, run 1, well a": 10765, "outcome": "active"}
{"gene knocked down": "CecA2 (Cecropin A2)", "PubChem SID": "SID104196396", "induced reporter light, run 1, well a": 1.22e5, "induced reporter light, run 1, well b": 1.49e5, "control promoter light, run 1, well a": 1.53e5, "control promoter light, run 1, well b": 1.38e5, "uninduced reporter light, run 1, well a": 9805, "outcome": "inactive"}
{"gene knocked down": "tou (toutatis)", "PubChem SID": "SID104185798", "induced reporter light, run 1, well a": 1.93e5, "induced reporter light, run 1, well b": 1.52e5, "control promoter light, run 1, well a": 1.85e5, "control promoter light, run 1, well b": 1.63e5, "uninduced reporter light, run 1, well a": 13305, "outcome": "inactive"}
{"gene knocked down": "CG9300", "PubChem SID": "SID104190856", "induced reporter light, run 1, well a": 94155, "induced reporter light, run 1, well b": 1.14e5, "control promoter light, run 1, well a": 63880, "control promoter light, run 1, well b": 87825, "uninduced reporter light, run 1, well a": 8240, "outcome": "inactive"}
{"gene knocked down": "Gdap2", "PubChem SID": "SID104186581", "induced reporter light, run 1, well a": 2.19e5, "induced reporter light, run 1, well b": 2.18e5, "control promoter light, run 1, well a": 2.59e5, "control promoter light, run 1, well b": 2.68e5, "uninduced reporter light, run 1, well a": 21145, "outcome": "inactive"}
{"gene knocked down": "Gdap2", "PubChem SID": "SID104186582", "induced reporter light, run 1, well a": 2.13e5, "induced reporter light, run 1, well b": 1.91e5, "control promoter light, run 1, well a": 2.24e5, "control promoter light, run 1, well b": 2.42e5, "uninduced reporter light, run 1, well a": 17600, "outcome": "inactive"}
{"gene knocked down": "CG33704", "PubChem SID": "SID104183630", "induced reporter light, run 1, well a": 1.16e5, "induced reporter light, run 1, well b": 85035, "control promoter light, run 1, well a": 96515, "control promoter light, run 1, well b": 1.18e5, "uninduced reporter light, run 1, well a": 10070, "outcome": "inactive"}
{"gene knocked down": "CG33234", "PubChem SID": "SID104187786", "induced reporter light, run 1, well a": 2.10e5, "induced reporter light, run 1, well b": 1.91e5, "control promoter light, run 1, well a": 1.98e5, "control promoter light, run 1, well b": 2.42e5, "uninduced reporter light, run 1, well a": 17960, "outcome": "inactive"}
{"gene knocked down": "CG18596", "PubChem SID": "SID104195147", "induced reporter light, run 1, well a": 1.44e5, "induced reporter light, run 1, well b": 1.62e5, "control promoter light, run 1, well a": 1.97e5, "control promoter light, run 1, well b": 2.40e5, "uninduced reporter light, run 1, well a": 13305, "outcome": "inactive"}
{"gene knocked down": "abs (abstrakt)", "PubChem SID": "SID104192164", "induced reporter light, run 1, well a": 1.23e5, "induced reporter light, run 1, well b": 1.08e5, "control promoter light, run 1, well a": 74405, "control promoter light, run 1, well b": 89555, "uninduced reporter light, run 1, well a": 9375, "outcome": "inactive"}
